From article PMC5564716
Results are given in words; binding and its absence hold for the method and conditions named. Binding seen in cells or lysates may run through a third protein. Some binding calls cover weakened binding; strength is not graded here.

Chains of the proteins cited; added tags and fusions are not shown.
UniProt Q12888: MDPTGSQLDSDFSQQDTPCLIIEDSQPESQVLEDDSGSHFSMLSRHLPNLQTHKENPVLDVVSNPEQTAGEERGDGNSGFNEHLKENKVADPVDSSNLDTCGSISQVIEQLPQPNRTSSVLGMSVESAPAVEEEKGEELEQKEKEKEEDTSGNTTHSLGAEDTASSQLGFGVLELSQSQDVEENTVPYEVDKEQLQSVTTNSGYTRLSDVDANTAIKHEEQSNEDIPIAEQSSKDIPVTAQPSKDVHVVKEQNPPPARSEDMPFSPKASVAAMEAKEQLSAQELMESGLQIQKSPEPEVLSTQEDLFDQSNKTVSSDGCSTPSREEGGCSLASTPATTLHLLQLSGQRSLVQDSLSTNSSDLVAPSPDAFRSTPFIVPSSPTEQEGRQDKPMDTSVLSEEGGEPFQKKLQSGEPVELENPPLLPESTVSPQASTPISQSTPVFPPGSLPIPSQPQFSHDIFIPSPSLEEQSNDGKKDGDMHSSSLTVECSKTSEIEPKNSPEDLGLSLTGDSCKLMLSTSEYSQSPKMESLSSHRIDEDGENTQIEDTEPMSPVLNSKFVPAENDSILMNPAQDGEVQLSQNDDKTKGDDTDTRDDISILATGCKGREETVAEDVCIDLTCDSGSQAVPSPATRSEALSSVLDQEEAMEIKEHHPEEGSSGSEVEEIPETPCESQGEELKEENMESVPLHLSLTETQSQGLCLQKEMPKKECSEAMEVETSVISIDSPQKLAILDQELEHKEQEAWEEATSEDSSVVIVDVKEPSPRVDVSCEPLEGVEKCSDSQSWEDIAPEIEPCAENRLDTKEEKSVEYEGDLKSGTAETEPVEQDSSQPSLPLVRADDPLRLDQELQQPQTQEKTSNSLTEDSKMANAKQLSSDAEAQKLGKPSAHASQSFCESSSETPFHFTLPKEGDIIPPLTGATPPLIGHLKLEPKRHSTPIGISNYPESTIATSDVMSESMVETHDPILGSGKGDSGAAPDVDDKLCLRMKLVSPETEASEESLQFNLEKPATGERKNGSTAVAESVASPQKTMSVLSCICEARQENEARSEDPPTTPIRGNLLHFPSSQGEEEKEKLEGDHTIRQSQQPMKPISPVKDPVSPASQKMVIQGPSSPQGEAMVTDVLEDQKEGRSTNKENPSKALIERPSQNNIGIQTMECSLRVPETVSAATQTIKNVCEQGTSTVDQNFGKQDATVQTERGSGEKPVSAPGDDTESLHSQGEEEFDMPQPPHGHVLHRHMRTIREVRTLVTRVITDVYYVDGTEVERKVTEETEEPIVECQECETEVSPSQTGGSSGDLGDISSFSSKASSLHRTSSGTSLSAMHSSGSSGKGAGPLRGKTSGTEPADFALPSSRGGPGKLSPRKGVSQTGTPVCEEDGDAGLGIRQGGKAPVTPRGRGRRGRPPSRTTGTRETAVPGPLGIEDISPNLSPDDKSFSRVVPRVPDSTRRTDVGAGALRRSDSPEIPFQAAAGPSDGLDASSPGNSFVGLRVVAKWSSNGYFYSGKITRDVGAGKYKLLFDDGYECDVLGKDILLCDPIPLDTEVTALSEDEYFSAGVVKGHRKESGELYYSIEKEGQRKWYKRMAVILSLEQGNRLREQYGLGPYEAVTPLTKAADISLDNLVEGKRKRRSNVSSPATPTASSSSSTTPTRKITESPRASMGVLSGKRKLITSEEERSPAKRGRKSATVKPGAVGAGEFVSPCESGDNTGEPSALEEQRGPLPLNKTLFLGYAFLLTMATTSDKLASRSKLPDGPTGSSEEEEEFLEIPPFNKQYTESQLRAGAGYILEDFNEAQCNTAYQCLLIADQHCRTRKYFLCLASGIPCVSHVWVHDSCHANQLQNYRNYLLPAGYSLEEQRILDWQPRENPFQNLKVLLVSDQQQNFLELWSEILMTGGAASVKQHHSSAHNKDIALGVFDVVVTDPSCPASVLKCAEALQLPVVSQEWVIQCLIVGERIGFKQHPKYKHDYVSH

Molecular target: tumor suppressor p53-binding protein 1 (53BP1), endogenous (human (endogenous in U2OS)) (UniProt Q12888)
Test: co-IP; endogenous immunoprecipitation of 53BP1 or MCAK from extracts of unsynchronized or NOC-synchronized mitotic cells, immunoblotting

B1: mitotic centromere-associated kinesin (MCAK), endogenous (protein, UniProt Q99661 1-725)
chain: MAMDSSLQARLFPGLAIKIQRSNGLIHSANVRTVNLEKSCVSVEWAEGGATKGKEIDFDDVAAINPELLQLLPLHPKDNLPLQENVTIQKQKRRSVNSKIPAPKESLRSRSTRMSTVSELRITAQENDMEVELPAAANSRKQFSVPPAPTRPSCPAVAEIPLRMVSEEMEEQVHSIRGSSSANPVNSVRRKSCLVKEVEKMKNKREEKKAQNSEMRMKRAQEYDSSFPNWEFARMIKEFRATLECHPLTMTDPIEEHRICVCVRKRPLNKQELAKKEIDVISIPSKCLLLVHEPKLKVDLTKYLENQAFCFDFAFDETASNEVVYRFTARPLVQTIFEGGKATCFAYGQTGSGKTHTMGGDLSGKAQNASKGIYAMASRDVFLLKNQPCYRKLGLEVYVTFFEIYNGKLFDLLNKKAKLRVLEDGKQQVQVVGLQEHLVNSADDVIKMIDMGSACRTSGQTFANSNSSRSHACFQIILRAKGRMHGKFSLVDLAGNERGADTSSADRQTRMEGAEINKSLLALKECIRALGQNKAHTPFRESKLTQVLRDSFIGENSRTCMIATISPGISSCEYTLNTLRYADRVKELSPHSGPSGEQLIQMETEEMEACSNGALIPGNLSKEEEELSSQMSSFNEAMTQIRELEEKAMEELKEIIQQGPDWLELSEMTEQPDYDLETFVNKAESALAQQAKHFSALRDVIKALRLAMQLEEQASRQISSKKRPQ
- binding: binds
